In paper PMC8839947:
No signal at the amounts used counts as a negative. At least one verdict was read from the data and is not stated in words by the source.

Molecular target: human serum albumin (HSA) (Homo sapiens) (UniProt P02768)
Test: square-wave voltammetry (interference)
Conditions: 100 pM HSA together with 100 pM HIgG in presence of 10 pM CRP, no interference; 5'-NH2-(CH2)6; CRP incubation in 0.1 M Tris pH 7.4, 2 mM CaCl2, 60 min; SWV read-out in PBS (0.1 M, pH 7.4); BSA-blocked electrode; commercial protein

GCCUGUAAGGUGGUCGGUGUGGCGAGUGUGUUAGGAGAGAUUGC [CRP RNA aptamer (5'-amino)]
binding result: no binding
